From the supplement of paper PMC10849652
The list shows a part of the results.

The chains behind the UniProt entries cited, without tags or fusion partners. Where a name states a change or a piece, a line headed by the entry shows the natural chain unless it says otherwise.
UniProt Q9Y385: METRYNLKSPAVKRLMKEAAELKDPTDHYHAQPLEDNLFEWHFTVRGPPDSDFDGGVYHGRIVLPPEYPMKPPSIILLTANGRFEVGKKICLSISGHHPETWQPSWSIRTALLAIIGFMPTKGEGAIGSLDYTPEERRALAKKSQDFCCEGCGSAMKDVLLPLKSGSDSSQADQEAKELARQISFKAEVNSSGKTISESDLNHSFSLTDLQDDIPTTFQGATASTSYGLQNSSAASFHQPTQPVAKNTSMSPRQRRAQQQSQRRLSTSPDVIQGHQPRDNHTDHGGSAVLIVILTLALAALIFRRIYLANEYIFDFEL
UniProt Q16881, whole entry, looked up: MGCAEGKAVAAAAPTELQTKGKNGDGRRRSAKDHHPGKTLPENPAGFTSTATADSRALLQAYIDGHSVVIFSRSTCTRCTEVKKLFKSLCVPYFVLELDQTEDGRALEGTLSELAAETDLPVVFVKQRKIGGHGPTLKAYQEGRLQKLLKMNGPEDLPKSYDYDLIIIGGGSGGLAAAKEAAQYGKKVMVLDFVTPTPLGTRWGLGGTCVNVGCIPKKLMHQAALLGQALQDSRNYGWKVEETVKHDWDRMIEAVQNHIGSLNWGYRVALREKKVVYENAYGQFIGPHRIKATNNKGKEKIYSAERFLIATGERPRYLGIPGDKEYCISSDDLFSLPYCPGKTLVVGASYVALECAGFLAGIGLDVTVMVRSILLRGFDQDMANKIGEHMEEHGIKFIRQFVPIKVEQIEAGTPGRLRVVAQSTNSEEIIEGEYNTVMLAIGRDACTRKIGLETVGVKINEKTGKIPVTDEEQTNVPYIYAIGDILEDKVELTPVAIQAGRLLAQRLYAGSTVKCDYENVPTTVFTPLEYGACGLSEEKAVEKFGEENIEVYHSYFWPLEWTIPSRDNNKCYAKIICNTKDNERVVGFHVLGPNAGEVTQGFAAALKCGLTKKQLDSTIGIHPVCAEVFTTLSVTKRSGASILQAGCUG
UniProt O75896: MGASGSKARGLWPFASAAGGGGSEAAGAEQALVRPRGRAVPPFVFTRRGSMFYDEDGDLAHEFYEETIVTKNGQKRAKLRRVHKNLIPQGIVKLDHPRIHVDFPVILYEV
UniProt Q86VQ6, whole entry, looked up: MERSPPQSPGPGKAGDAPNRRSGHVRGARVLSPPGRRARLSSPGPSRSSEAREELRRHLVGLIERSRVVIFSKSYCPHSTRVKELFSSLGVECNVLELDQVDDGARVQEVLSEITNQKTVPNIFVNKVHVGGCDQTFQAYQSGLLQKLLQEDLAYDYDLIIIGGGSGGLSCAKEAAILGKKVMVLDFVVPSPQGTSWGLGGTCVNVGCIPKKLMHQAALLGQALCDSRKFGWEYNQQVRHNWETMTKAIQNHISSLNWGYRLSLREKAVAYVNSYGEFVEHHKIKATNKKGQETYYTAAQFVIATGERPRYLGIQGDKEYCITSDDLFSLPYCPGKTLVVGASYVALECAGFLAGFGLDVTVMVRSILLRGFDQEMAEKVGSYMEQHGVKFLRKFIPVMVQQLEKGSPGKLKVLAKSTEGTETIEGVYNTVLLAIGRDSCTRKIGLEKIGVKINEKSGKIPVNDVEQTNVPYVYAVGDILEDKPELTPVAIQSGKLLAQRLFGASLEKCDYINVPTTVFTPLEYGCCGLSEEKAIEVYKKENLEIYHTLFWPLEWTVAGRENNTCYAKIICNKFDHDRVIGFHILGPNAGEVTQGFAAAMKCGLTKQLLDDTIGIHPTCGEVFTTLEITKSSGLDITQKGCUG
UniProt P60604: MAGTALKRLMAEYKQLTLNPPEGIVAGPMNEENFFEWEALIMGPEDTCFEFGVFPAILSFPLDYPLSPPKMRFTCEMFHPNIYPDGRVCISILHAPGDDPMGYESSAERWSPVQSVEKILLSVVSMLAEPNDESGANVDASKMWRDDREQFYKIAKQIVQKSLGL
UniProt Q14CS0: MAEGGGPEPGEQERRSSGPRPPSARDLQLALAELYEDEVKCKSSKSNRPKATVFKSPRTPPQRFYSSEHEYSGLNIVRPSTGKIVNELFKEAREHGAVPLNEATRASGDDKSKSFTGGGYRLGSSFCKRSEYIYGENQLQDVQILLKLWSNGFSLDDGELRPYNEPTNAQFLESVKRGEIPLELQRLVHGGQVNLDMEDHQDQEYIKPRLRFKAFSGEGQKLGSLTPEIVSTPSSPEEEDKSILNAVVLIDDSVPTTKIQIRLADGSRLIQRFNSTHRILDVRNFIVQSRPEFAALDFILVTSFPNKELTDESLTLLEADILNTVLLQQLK
UniProt Q8NBM4: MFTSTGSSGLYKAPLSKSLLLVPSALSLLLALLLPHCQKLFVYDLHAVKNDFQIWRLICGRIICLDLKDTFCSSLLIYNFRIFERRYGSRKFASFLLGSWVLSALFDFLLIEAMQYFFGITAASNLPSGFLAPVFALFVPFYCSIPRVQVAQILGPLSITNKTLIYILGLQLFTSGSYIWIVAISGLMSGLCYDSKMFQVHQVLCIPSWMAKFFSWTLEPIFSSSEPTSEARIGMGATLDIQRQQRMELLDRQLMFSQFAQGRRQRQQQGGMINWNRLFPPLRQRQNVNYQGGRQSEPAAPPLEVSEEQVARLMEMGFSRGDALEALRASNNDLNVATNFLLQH
UniProt O14530: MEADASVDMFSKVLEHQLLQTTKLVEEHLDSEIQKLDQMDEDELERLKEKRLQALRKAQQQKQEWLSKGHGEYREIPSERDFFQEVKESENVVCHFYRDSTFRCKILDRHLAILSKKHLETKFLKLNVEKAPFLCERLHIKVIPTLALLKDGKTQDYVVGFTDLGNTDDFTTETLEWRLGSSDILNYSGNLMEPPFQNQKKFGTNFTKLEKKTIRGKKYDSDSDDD
UniProt Q9GZX9: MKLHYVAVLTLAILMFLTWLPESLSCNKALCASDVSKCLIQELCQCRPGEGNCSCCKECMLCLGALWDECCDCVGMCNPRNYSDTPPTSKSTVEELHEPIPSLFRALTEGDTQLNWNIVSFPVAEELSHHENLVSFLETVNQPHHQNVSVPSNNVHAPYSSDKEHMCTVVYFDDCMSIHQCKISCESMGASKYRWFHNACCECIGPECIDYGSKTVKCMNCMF
UniProt Q9NRR5, whole entry, looked up: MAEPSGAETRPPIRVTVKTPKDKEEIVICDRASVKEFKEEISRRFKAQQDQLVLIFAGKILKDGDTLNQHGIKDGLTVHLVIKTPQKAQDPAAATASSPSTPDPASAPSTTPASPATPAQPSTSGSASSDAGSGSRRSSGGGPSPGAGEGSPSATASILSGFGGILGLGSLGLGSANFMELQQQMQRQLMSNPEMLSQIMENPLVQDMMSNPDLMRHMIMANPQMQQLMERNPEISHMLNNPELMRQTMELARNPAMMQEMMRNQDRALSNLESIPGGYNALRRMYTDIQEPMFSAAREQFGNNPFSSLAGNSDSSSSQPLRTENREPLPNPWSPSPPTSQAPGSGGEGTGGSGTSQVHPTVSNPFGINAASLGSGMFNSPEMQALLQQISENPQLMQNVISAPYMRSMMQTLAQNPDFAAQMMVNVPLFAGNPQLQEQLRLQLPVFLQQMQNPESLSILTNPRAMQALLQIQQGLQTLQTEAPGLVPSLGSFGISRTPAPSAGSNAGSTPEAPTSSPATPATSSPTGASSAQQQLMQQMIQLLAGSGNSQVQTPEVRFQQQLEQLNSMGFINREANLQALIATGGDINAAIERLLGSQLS
UniProt Q9UMX0, whole entry, looked up: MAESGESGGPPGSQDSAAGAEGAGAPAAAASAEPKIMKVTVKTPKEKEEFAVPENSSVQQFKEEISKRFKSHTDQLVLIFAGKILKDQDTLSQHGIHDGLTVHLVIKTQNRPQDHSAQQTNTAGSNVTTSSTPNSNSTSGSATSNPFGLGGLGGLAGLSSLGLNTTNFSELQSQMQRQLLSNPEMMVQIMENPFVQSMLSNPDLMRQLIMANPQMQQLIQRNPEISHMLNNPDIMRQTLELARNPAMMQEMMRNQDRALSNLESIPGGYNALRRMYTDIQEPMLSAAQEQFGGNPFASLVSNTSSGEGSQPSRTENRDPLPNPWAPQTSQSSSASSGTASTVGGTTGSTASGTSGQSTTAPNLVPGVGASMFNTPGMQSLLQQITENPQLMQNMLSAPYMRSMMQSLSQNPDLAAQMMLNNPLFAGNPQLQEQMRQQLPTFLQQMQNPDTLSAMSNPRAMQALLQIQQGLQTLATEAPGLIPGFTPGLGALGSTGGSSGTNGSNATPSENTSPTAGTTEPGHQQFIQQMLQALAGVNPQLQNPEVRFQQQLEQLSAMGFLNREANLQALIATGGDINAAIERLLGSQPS
UniProt P68543: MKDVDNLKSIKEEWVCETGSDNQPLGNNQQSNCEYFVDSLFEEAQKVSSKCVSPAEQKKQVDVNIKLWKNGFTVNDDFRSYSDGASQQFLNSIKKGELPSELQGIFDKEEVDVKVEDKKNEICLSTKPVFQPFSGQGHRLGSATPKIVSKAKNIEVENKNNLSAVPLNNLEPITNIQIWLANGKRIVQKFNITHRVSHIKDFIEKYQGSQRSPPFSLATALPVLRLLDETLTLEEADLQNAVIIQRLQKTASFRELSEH
UniProt Q6IPR3: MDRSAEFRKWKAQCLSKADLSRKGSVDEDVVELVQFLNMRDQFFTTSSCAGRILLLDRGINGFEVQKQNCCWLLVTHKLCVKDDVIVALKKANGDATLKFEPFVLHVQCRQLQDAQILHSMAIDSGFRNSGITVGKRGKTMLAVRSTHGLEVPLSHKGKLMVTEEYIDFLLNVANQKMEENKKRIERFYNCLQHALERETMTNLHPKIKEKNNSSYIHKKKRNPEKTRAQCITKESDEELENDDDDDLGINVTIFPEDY
UniProt Q96LJ8: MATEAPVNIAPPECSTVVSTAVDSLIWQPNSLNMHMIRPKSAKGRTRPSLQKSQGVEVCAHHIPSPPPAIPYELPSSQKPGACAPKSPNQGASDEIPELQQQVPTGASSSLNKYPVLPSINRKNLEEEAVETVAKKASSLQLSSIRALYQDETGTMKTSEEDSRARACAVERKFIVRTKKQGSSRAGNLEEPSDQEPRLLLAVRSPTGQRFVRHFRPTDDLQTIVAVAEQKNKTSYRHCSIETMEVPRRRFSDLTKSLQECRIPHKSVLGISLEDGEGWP
UniProt Q9Y5Z9: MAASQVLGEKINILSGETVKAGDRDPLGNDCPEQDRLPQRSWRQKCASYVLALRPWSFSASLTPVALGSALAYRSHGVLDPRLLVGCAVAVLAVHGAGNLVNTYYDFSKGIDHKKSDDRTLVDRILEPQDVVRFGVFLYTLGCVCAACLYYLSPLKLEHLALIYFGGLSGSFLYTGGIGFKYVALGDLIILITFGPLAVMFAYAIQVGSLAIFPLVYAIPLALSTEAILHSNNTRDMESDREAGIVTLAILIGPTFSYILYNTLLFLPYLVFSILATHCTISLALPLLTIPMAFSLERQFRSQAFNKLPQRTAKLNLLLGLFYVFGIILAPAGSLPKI
UniProt Q86VQ3: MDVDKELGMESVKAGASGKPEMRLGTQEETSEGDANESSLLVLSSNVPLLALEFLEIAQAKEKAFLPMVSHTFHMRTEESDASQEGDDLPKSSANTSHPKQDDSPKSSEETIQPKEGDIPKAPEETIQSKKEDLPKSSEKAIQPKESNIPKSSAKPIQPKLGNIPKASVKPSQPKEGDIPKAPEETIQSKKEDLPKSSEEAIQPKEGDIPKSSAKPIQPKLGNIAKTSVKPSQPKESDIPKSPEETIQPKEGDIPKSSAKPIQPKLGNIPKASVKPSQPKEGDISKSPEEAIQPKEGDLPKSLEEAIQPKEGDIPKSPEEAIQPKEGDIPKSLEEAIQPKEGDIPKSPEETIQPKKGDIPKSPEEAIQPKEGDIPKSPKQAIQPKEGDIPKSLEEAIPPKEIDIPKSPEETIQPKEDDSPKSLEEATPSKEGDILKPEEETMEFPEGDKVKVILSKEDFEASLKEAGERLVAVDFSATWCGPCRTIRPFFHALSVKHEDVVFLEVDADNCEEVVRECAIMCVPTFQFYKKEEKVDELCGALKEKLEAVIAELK

How the values were obtained:
Experiment in all cases: log2 fold change, soluble protein after heating vs DMSO (PISA); higher = thermal stabilisation; K562 lysate, 10 uM; active = over 0.2 and 3.5 SD of the protein, either way, in both replicates (recomputed)
lapatinib = compound: CS(=O)(=O)CCNCc1ccc(-c2ccc3ncnc(Nc4ccc(OCc5cccc(F)c5)c(Cl)c4)c3c2)o1 [lapatinib]
Summary of the method: (§1)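 To prepare the extract, K562 pellets were dounce-homogenised in PBS pH 7.4 with 1 mM MgCl2, giving crude material at 1 mg/mL protein. This was treated with 10 μM compound for 30 min, then heated in aliquots for 3 min over 48°C-58°C before pooling and addition of NP-40 to 0.5% at 4°C. Centrifugation at 21,000xg for 90 min left soluble protein in the supernatant, which TMTpro 16plex LC-MS/MS quantified with equalised channel sums. Results are log-two fold changes in thermal stability compared with solvent controls, from duplicates.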

pictilisib = compound: CS(=O)(=O)N1CCN(Cc2cc3nc(-c4cccc5[nH]ncc45)nc(N4CCOCC4)c3s2)CC1 [pictilisib]
Summary of the method: as §1

crizotinib = compound: C[C@@H](Oc1cc(-c2cnn(C3CCNCC3)c2)cnc1N)c1c(Cl)ccc(F)c1Cl [crizotinib]
Summary of the method: as §1

[1] = compound: C[C@H](C1=CC=C(C=C1)C(=O)NC2=C3C=CNC3=NC=C2)N
Summary of the method: as §1

duvelisib = compound: C[C@H](Nc1ncnc2nc[nH]c12)c1cc2cccc(Cl)c2c(=O)n1-c1ccccc1 [duvelisib]
Summary of the method: as §1

gandotinib = compound: Cc1cc(Nc2cc(CN3CCOCC3)c3nc(C)c(Cc4ccc(Cl)cc4F)n3n2)n[nH]1 [gandotinib]
Summary of the method: as §1

tozasertib = compound: Cc1cc(Nc2cc(N3CCN(C)CC3)nc(Sc3ccc(NC(=O)C4CC4)cc3)n2)n[nH]1 [tozasertib]
Summary of the method: as §1

doramapimod = compound: Cc1ccc(-n2nc(C(C)(C)C)cc2NC(=O)Nc2ccc(OCCN3CCOCC3)c3ccccc23)cc1 [doramapimod]
Summary of the method: as §1

bafetinib = compound: Cc1ccc(NC(=O)c2ccc(CN3CC[C@H](N(C)C)C3)c(C(F)(F)F)c2)cc1Nc1nccc(-c2cncnc2)n1 [bafetinib]
Summary of the method: as §1

[2] = compound: Cc1cccc(CC(=O)N2CCc3c2ccc(-c2cn(C)c4ncnc(N)c24)c3F)n1
Summary of the method: as §1

nilotinib = compound: Cc1cn(-c2cc(NC(=O)c3ccc(C)c(Nc4nccc(-c5cccnc5)n4)c3)cc(C(F)(F)F)c2)cn1 [nilotinib]
Summary of the method: as §1

[3] = compound: Cc1nc(Nc2n[nH]c3c2CN(C(=O)N[C@H](CN(C)C)c2ccccc2)C3(C)C)c2sccc2n1
Summary of the method: as §1

dasatinib = compound: Cc1nc(Nc2ncc(C(=O)Nc3c(C)cccc3Cl)s2)cc(N2CCN(CCO)CC2)n1 [dasatinib]
Summary of the method: as §1

[4] = compound: Cc1ncc(-c2ccnc(Nc3ccc(S(C)(=O)=O)cc3)n2)n1C(C)C
Summary of the method: as §1

[5] = compound: Cn1cc(-c2ccc3c(c2)CCN3C(=O)Cc2cccc(C(F)(F)F)c2)c2c(N)ncnc21
Summary of the method: as §1

quisinostat = compound: Cn1cc(CNCC2CCN(c3ncc(C(=O)NO)cn3)CC2)c2ccccc21 [quisinostat]
Summary of the method: as §1

tipifarnib = compound: Cn1cncc1[C@@](N)(c1ccc(Cl)cc1)c1ccc2c(c1)c(-c1cccc(Cl)c1)cc(=O)n2C [tipifarnib]
Summary of the method: as §1

[6] = compound: NC(=O)Nc1cc(-c2cccc(F)c2)sc1C(=O)N[C@H]1CCCNC1
Summary of the method: as §1

[7] = compound: NC(=O)c1cnc(N[C@@H]2CCCC[C@@H]2N)nc1Nc1cccc(-n2nccn2)c1
Summary of the method: as §1

[8] = compound: NC1(c2ccc(-c3nc4ccn5c(=O)[nH]nc5c4cc3-c3ccccc3)cc2)CCC1
Summary of the method: as §1

Target | log2 fold change (lapatinib) | log2 fold change (pictilisib) | log2 fold change (crizotinib) | log2 fold change [1] | log2 fold change (duvelisib) | log2 fold change (gandotinib) | log2 fold change (tozasertib) | log2 fold change (doramapimod) | log2 fold change (bafetinib) | log2 fold change [2] | log2 fold change (nilotinib) | log2 fold change [3] | log2 fold change (dasatinib) | log2 fold change [4] | log2 fold change [5] | log2 fold change (quisinostat) | log2 fold change (tipifarnib) | log2 fold change [6] | log2 fold change [7] | log2 fold change [8]
UBE2J1 (UniProt Q9Y385) | inactive: -0.019 | inactive: 0.011 | inactive: -0.007 | inactive: -0.056 | inactive: -0.048 | inactive: -0.03 | inactive: -0.012 | inactive: 0.007 | inactive: 0.004 | inactive: -0.013 | inactive: -0.008 | inactive: 0.012 | inactive: -0.163 | inactive: -0.005 | inactive: -0.042 | inactive: -0.004 | inactive: -0.005 | inactive: -0.002 | inactive: 0.016 | inactive: 0.053
TXNRD1 isoform 7 (UniProt Q16881) | inactive: -0.177 | inactive: 0.049 | – | inactive: -0.389 | inactive: 0.109 | inactive: 0.613 | inactive: -0.181 | – | inactive: -0.051 | inactive: 0.455 | – | – | inactive: 0.052 | – | inactive: -0.25 | – | – | – | inactive: -0.107 | –
TUSC2 (UniProt O75896) | inactive: -0.098 | inactive: -0.043 | – | inactive: -0.014 | inactive: 0.092 | inactive: 0.114 | inactive: 0.103 | – | inactive: 0.096 | inactive: 0.008 | inactive: -0.072 | inactive: 0.05 | inactive: 0.064 | inactive: -0.099 | inactive: 0.027 | – | inactive: -0.125 | – | inactive: -0.198 | inactive: 0.191
TXNRD3 (UniProt Q86VQ6) | inactive: 0.196 | inactive: -0.128 | – | inactive: 0.316 | – | inactive: 0.027 | inactive: -0.108 | – | inactive: 0.009 | inactive: -0.173 | – | – | – | – | – | – | – | – | inactive: -0.092 | inactive: 0.021
UBE2G2 (UniProt P60604) | inactive: 0.058 | – | inactive: 0.019 | inactive: -0.045 | inactive: 0.05 | inactive: 0.018 | inactive: -0.018 | inactive: -0.07 | – | inactive: 0.152 | inactive: 0.023 | inactive: 0.071 | inactive: 0.021 | inactive: -0.07 | inactive: -0.039 | inactive: 0.044 | inactive: -0.072 | inactive: -0.068 | inactive: -0.009 | inactive: 0.066
UBXN2B (UniProt Q14CS0) | inactive: -0.226 | inactive: -0.036 | – | inactive: -0.01 | inactive: 0.07 | inactive: 0.213 | inactive: 0.027 | – | inactive: 0.003 | inactive: -0.005 | inactive: -0.04 | inactive: -0.068 | inactive: 0.08 | inactive: -0.208 | inactive: -0.099 | – | inactive: 0.021 | – | inactive: -0.024 | inactive: -0.06
UBAC2 (UniProt Q8NBM4) | inactive: 0.103 | inactive: 0.076 | inactive: 0.038 | inactive: -0.078 | inactive: 0.001 | inactive: -0.323 | inactive: 0.086 | inactive: 0.066 | inactive: -0.004 | inactive: 0.005 | – | – | inactive: 0.086 | – | inactive: -0.024 | inactive: -0.001 | – | inactive: 0.019 | inactive: 0.069 | inactive: -0.028
UBA52 (UniProt P62987) | inactive: 0.04 | inactive: 0.048 | inactive: -0.011 | inactive: 0 | – | inactive: 0.029 | inactive: 0.02 | inactive: 0.023 | inactive: 0.097 | inactive: 0.047 | inactive: 0.004 | inactive: 0.111 | – | inactive: 0.028 | – | inactive: -0.015 | inactive: -0.077 | inactive: 0.029 | inactive: 0.043 | inactive: -0.02
TXNDC9 (UniProt O14530) | inactive: -0.025 | inactive: 0.039 | inactive: 0.028 | inactive: -0.164 | inactive: 0.008 | inactive: 0.064 | inactive: -0.026 | inactive: -0.044 | inactive: -0.033 | inactive: 0.074 | inactive: 0.002 | inactive: 0.014 | inactive: -0.002 | inactive: 0.009 | inactive: 0.037 | inactive: 0.025 | inactive: 0.008 | inactive: -0.01 | inactive: 0.006 | inactive: -0.006
TWSG1 (UniProt Q9GZX9) | inactive: -0.013 | inactive: -0.021 | inactive: 0.125 | inactive: 0.069 | inactive: -0.079 | inactive: -0.034 | inactive: 0 | inactive: -0.079 | inactive: 0.025 | inactive: -0.084 | inactive: -0.001 | inactive: -0.115 | inactive: -0.132 | inactive: -0.038 | inactive: -0.329 | inactive: -0.01 | inactive: 0.121 | inactive: -0.004 | inactive: 0.016 | inactive: -0.047
UBQLN4 (UniProt Q9NRR5) | inactive: 0.043 | inactive: -0.054 | inactive: -0.029 | inactive: 0.035 | inactive: 0.001 | inactive: -0.02 | inactive: 0.026 | inactive: -0.073 | inactive: -0.02 | inactive: -0.028 | inactive: 0.014 | inactive: 0.036 | inactive: 0 | inactive: 0.02 | inactive: -0.012 | inactive: -0.016 | inactive: -0.01 | inactive: 0.01 | inactive: -0.029 | inactive: -0.031
UBQLN1 isoform 2 (UniProt Q9UMX0) | inactive: -0.06 | – | inactive: 0.062 | – | inactive: 0.001 | – | inactive: 0.034 | inactive: -0.038 | – | – | – | – | inactive: 0.096 | – | inactive: 0.022 | inactive: -0.041 | – | inactive: -0.183 | inactive: -0.072 | inactive: 0
UBXN2A (UniProt P68543) | inactive: -0.021 | inactive: 0.139 | inactive: -0.085 | inactive: -0.059 | inactive: 0.035 | inactive: 0.097 | – | inactive: 0.096 | inactive: -0.009 | inactive: -0.013 | – | – | inactive: 0.142 | – | inactive: -0.035 | inactive: -0.13 | – | inactive: 0.017 | inactive: -0.081 | inactive: -0.055
TYW3 (UniProt Q6IPR3) | inactive: -0.014 | inactive: 0.008 | inactive: -0.022 | inactive: -0.144 | inactive: 0.018 | inactive: 0.1 | inactive: 0 | inactive: 0.054 | inactive: 0.051 | inactive: 0.176 | inactive: -0.033 | inactive: 0.017 | inactive: -0.006 | inactive: 0.035 | inactive: 0.027 | inactive: -0.126 | inactive: -0.018 | inactive: -0.014 | inactive: 0.046 | inactive: 0.017
TUBB4A (UniProt M0QYM7) | inactive: -0.009 | inactive: -0.067 | inactive: -0.176 | active: -1.05 | – | inactive: 0.39 | inactive: 0.138 | inactive: 0.116 | inactive: -0.516 | inactive: 0.42 | inactive: -0.029 | inactive: -0.009 | – | inactive: 0.039 | – | inactive: -0.116 | inactive: 0.013 | inactive: 0.107 | inactive: -0.048 | inactive: 0.126
UBXN10 (UniProt Q96LJ8) | inactive: -0.041 | inactive: 0.006 | inactive: 0.02 | inactive: -0.001 | inactive: 0.035 | inactive: 0.06 | inactive: 0.006 | inactive: -0.003 | inactive: -0.081 | inactive: -0.065 | – | – | inactive: -0.007 | – | inactive: 0.008 | inactive: -0.028 | – | inactive: 0.035 | inactive: 0.078 | inactive: 0.014
UBIAD1 (UniProt Q9Y5Z9) | inactive: 0.031 | – | inactive: -0.048 | inactive: 0.036 | inactive: -0.054 | inactive: 0 | inactive: -0.024 | inactive: -0.014 | – | inactive: 0.016 | inactive: 0.14 | inactive: -0.014 | inactive: 0.117 | inactive: 0.125 | inactive: -0.014 | inactive: 0.096 | inactive: 0.04 | inactive: -0.019 | inactive: -0.034 | inactive: -0.027
TXNDC2 (UniProt Q86VQ3) | inactive: -0.009 | inactive: 0.045 | inactive: -0.028 | inactive: 0.083 | – | inactive: 0.1 | – | inactive: -0.071 | inactive: 0.066 | inactive: -0.149 | inactive: 0.237 | inactive: -0.036 | – | inactive: 0.015 | – | inactive: 0.006 | inactive: 0.019 | inactive: 0.045 | inactive: 0.048 | inactive: -0.042

An excerpt from above with just log2 fold change [1], log2 fold change (bafetinib) and log2 fold change (nilotinib):
Target	log2 fold change [1]	log2 fold change (bafetinib)	log2 fold change (nilotinib)
TXNRD1 isoform 7 (UniProt Q16881)	inactive: -0.389	inactive: -0.051	–
TUSC2 (UniProt O75896)	inactive: -0.014	inactive: 0.096	inactive: -0.072
